Test results published in PubChem BioAssay AID448 (National Center for Advancing Translational Sciences (NCATS), 2006).
In all, about 65,000 compounds went through this assay and about 45 (0.07%) were called active. This list was built around the results that the source calls inconclusive (neither active nor inactive); the mix of calls is not that of the screen. The call rests on the fitted dose curve. Potencies beside an inconclusive call are fits to weak or partial responses and may not hold up.

test system: Schistosoma mansoni peroxiredoxin 2 (Prx2); test: Schistosoma Mansoni Peroxiredoxins (Prx2); conditions: S. mansoni Prx2 activity coupled to TGR/GSH (TGR is thioredoxin glutathione reductase), NADPH fluorescence loss, qHTS
Excerpt: NIH Molecular Libraries Screening Centers Network [MLSCN]
NIH Chemical Genomics Center [NCGC]
David Williams [Illinois State University]
Schistosoma mansoni, a causative agent of schistosomiasis, resides in the bloodstream of their host up to 30 years without being eliminated by the host immune attack. One proposed survival mechanism is the production of an antioxidant "firewall" that neutralizes the oxidative assault of the host's immune attack. Schistosoma mansoni peroxiredoxins (Prx) are important parasite antioxidant proteins that play a crucial role in redox balance mechanisms. […] First, the proteins are essential for the parasite survival. […] Third, the protein(s) is amenable for study at the molecular level and can be produced in bacteria in large quantities, in soluble and active form. Inhibition of Prx activity was screened in a coupled-enzyme format with reducing equivalents being transferred from NADPH to […] intermediate via thioredoxin/glutathione reductase (TGR)-catalyzed reaction, then from thioredoxin to hydrogen peroxide via Prx-catalyzed electron transfer. A decrease in the fluorescence intensity of NADPH was used to measure the enzyme activity. Purified S. mansoni TGR and Prx were provided by Professor David L. Williams, Illinois State University.
NCGC Assay Protocol Summary:
100 mM phosphate buffer, pH 7.4, 10 mM EDTA, 0.01% Tween-20.
100 uM NADPH/25 nM TGR/700 uM GSH/50 nM Prx2 mixture in columns 1, 2, 5-48. Titration of control potassium antimonyl tartrate (PAT, from 1 mM, then 1:5) pin-transferred to lower half of column 2. Column 1 and upper half of column 2 are neutral (100% activity).
Three uL of reagents were dispensed to 1536-well Greiner black plates. Compounds and controls (20 nL) were transferred via Kalypsys PinTool. The plates were incubated for 15 min at room temperature, and then a 1 uL aliquot of 400 uM NADPH/700 uM GSH was added, immediately followed by a 1uL aliquot of 2.5 mM H2O2 (to start the reaction). The plate was transferred to ViewLux (Perkin-Elmer) High-throughput CCD imager where kinetic measurements (every 30 sec, for a total of 8 min) of NADPH fluorescence were taken using 365 nm excitation/450 nm emission filter set. During dispense, enzyme-containing reagent bottles were kept submerged into 4 deg C water bath to minimize degradation.
Keywords: NIH Roadmap, MLSCN, MLI, MLSMR, David Williams, Peroxyredoxin, Schistosoma mansoni, prx2, prx, , qHTS, NCGC
Potency means the concentration at half of the fitted maximal effect.

SMILES | Potency
Nc1nc2c(c(=O)[nH]1)CN(CCCN1CCOCC1)CN2 | inconclusive: 39 µM [single point]
O=C(NCC(=O)N(c1ccc2c(c1)OCO2)C(C(=O)NC1CCCC1)c1ccncc1)c1ccco1 (centres undefined) | inconclusive: 57 µM [single point]
COc1ccccc1NC(=O)CSc1nc2nc(C)cc(C)c2c(=O)[nH]1 | inconclusive: 84.8 µM [single point]
Cc1[nH]c2ccccc2c1C(c1ccccn1)N1CCC(C(N)=O)CC1 (centres undefined) | inconclusive: 93.3 µM [single point]
CC(=O)OCC1=C(C(=O)[O-])N2C(=O)[C@@H](NC(=O)CCC[C@@H](N)C(=O)[O-])[C@@H]2SC1.[Zn+2] | inactive: > 57 µM
NC(=O)CI | inconclusive: 76.5 µM [single point]
CC1=C(C(=O)OCc2ccccc2)C(c2ccccc2)NC(=O)N1CCCCCC(=O)O (centres undefined) | inconclusive: 50.7 µM [single point]
COc1ccc(Cl)cc1NC(=O)Cn1c(=O)n2nc(C)nc2c2ccccc21 | inactive: > 57 µM
NCC[C@H](N)C(=O)O | inactive: > 57 µM
O=C(NCP(=O)(O)O)c1cccnc1 | inactive: > 57 µM
N#CC(C#N)=Cc1ccc(O)c(O)c1 | inconclusive: 56.1 µM [partial curve]
COc1cccc(-n2c(SCc3c(C)noc3C)nnc2-c2cccc(S(=O)(=O)N(C)C)c2)c1 | inconclusive: 80.6 µM [partial curve]
C[C@H](Cc1ccc(O)c(O)c1)[C@@H](C)Cc1ccc(O)c(O)c1 | inactive: > 57 µM
CCN1C(=O)c2cccc3c(N)ccc1c23 | inconclusive: 219 µM [partial curve]
CN(C)c1ccc(/C=[N+](\[O-])C(C)(C)/C=N/O)cc1 | inconclusive: 104 µM [single point]
CCOC(=O)C1=C(C)N(c2nonc2NC(C)=O)C(N)=C(C#N)C1c1ccccc1F (centres undefined) | inconclusive: 16.6 µM [partial curve]
O=C(COc1ccc(S(=O)(=O)N2CCCC2)cc1Cl)N1CCN(c2ccccc2)CC1 | inconclusive: 89.8 µM [single point]
Cc1nc(NC(=O)c2ccccc2)sc1-c1csc(NCc2ccco2)n1 | inactive: > 57 µM
CCOc1ccc(N2C(=O)CC(Sc3nc(C)cc(C)n3)C2=O)cc1 (centres undefined) | inconclusive: 86.1 µM [single point]
Cc1cc2ccc(OC(=O)c3ccc(N=C(N)N)cc3)cc2oc1=O | inconclusive: 44.2 µM [single point]

In the list so far, these contain a carbonyl joined to an NH by a bond outside any ring.
SMILES | Potency
O=C(NCC(=O)N(c1ccc2c(c1)OCO2)C(C(=O)NC1CCCC1)c1ccncc1)c1ccco1 (centres undefined) | inconclusive: 57 µM [single point]
COc1ccccc1NC(=O)CSc1nc2nc(C)cc(C)c2c(=O)[nH]1 | inconclusive: 84.8 µM [single point]
Cc1[nH]c2ccccc2c1C(c1ccccn1)N1CCC(C(N)=O)CC1 (centres undefined) | inconclusive: 93.3 µM [single point]
CC(=O)OCC1=C(C(=O)[O-])N2C(=O)[C@@H](NC(=O)CCC[C@@H](N)C(=O)[O-])[C@@H]2SC1.[Zn+2] | inactive: > 57 µM
NC(=O)CI | inconclusive: 76.5 µM [single point]
COc1ccc(Cl)cc1NC(=O)Cn1c(=O)n2nc(C)nc2c2ccccc21 | inactive: > 57 µM
O=C(NCP(=O)(O)O)c1cccnc1 | inactive: > 57 µM
CCOC(=O)C1=C(C)N(c2nonc2NC(C)=O)C(N)=C(C#N)C1c1ccccc1F (centres undefined) | inconclusive: 16.6 µM [partial curve]
Cc1nc(NC(=O)c2ccccc2)sc1-c1csc(NCc2ccco2)n1 | inactive: > 57 µM

(listing goes on)

SMILES | Potency
CCN(CC)CC(=O)c1c[nH]c2ccc(C)cc12 | inconclusive: 67.9 µM [single point]
FC(F)C(F)(F)C(F)(F)C(F)(F)c1cc(-c2ccccc2)n[nH]1 | inconclusive: 133 µM [partial curve]
N#Cc1cccc(-c2nccc(-n3ccnc3)n2)c1 | inconclusive: 106 µM [single point]
Cc1ccc(Cn2nc(C)c(NC(=O)c3cc(-c4ccco4)on3)c2C)cc1 | inconclusive: 81.8 µM [single point]
CCCc1cc(C(=O)Cc2ccc(C(=O)OCC)o2)c(O)cc1O | inconclusive: 54.4 µM [single point]
CC[N+](C)(CC)CCC[n+]1c(-c2ccccc2)c2cc(N)ccc2c2ccc(N)cc21 | inactive: > 57 µM
CC(C)NC(=O)N1CC[C@@]2(CCCN(C(=O)c3cnccn3)C2)C1 | inactive: > 57 µM
CCOC(=O)/C=C/S(=O)(=O)c1ccc(NC(C)=O)cc1 | inconclusive: 290 µM [single point]
CCn1c(SCC(=O)Nc2nc(-c3ccc(C)cc3)cs2)nnc1-c1ccccc1O | inconclusive: 61.7 µM [single point]
COc1ccc(C(=O)Nc2ccc(-c3cn4ccsc4n3)cc2)cc1S(=O)(=O)N1CCOCC1 | inconclusive: 48.5 µM [single point]
NCCP(=O)(O)O | inactive: > 57 µM
N=C1CCC[C@@H]1C(=S)SCCC(N)=O | inactive: > 57 µM
CCCCN1CCC[C@@H]1CNC(=O)c1cc(C#N)c2ccccc2c1OC | inactive: > 57 µM
O=C(CCCn1c(=O)[nH]c2ccccc2c1=O)NC1CCCCCC1 | inactive: > 57 µM
NC(=O)c1cccc2c1C(=O)N(C1CCCCC1)C2 | inactive: > 57 µM
Cc1c(C(=O)OCc2ccccc2)nnn1-c1nonc1N | inconclusive: 199 µM [partial curve]
CCOc1ccc(Cn2nnc(C(=O)Nc3cc(C)cc(C)c3)c2N)cc1 | inactive: > 57 µM
CC(C)(C)N=C1SCC(C)(/C=N/O)S1 (centres undefined) | inactive: > 57 µM
N#CCCS(=O)(=O)c1nnnn1-c1ccccc1 | inconclusive: 44.8 µM [single point]
